In this test the target is Integrin beta-1 (Itgb1) of MLO-Y4 cells (mouse) (UniProt P09055). Put plainly: DTSSP cross-linking on MLO-Y4 cells, his-tag pull-down, mass spectrometry.

By UniProt entry, the sequences of proteins in these tests, tags left out. Residues count along the entry.
UniProt P09055, residues 21-798: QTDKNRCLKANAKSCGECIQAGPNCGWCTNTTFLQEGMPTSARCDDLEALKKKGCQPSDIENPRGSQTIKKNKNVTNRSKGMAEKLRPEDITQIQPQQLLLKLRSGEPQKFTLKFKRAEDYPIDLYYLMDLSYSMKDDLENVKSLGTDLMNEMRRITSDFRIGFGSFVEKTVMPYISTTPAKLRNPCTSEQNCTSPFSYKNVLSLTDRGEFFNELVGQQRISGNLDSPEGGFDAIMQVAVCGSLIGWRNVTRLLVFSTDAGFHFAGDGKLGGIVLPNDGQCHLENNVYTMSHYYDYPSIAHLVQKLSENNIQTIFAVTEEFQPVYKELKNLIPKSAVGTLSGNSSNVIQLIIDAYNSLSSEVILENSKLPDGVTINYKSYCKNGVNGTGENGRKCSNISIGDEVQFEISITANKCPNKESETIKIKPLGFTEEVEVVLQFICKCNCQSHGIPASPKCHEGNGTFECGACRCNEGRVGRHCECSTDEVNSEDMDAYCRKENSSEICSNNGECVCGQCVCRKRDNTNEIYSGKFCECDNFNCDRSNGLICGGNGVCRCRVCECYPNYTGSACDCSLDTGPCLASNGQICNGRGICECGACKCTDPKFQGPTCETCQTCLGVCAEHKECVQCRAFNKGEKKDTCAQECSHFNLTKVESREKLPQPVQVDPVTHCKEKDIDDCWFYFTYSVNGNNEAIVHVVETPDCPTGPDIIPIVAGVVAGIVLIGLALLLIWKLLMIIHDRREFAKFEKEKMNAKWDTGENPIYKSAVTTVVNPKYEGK

No constants are given. Whether binding was seen depends on the method and setting. Binding seen in cells or lysates may run through a third protein. Here binding means that the protein was enriched with, or labelled near, the bait; the list need not be complete. Sequences can lack the tags named with a protein.

We go through one molecule from patent US20210063414A1, “METHODS FOR PREVENTING AND/OR TREATING BONE LOSS CONDITIONS BY MODULATING IRISIN” (Dana-Farber Cancer Institute, Inc., priority 2018, published 2021).

B1: His-tag recombinant irisin (irisin (human/mouse) with a C-terminal 10 his tag, produced in HEK293 cells) (ligand, not shown: small tags and cut ends)
chain: DSPSAPVNVTVRHLKANSAVVSWDVLEDEVVIGFAISQQKKDVRMLRFIQEVNTTTRSCALWDLEEDTEYIVHVQAISIQGQSPASEPVLFKTPREAEKMASKNKDEVTMKE
Consider B1, for which the binding result is recorded as “binds”.
